Test results as given in the M2OR odorant receptor database.
This is one part of the list. The calls were merged from several studies; some rest on single wells.

Assays:
Details in all cases: stereoisomer not certain
[1] = system: T1, O11L1
T1 sequence (whole entry): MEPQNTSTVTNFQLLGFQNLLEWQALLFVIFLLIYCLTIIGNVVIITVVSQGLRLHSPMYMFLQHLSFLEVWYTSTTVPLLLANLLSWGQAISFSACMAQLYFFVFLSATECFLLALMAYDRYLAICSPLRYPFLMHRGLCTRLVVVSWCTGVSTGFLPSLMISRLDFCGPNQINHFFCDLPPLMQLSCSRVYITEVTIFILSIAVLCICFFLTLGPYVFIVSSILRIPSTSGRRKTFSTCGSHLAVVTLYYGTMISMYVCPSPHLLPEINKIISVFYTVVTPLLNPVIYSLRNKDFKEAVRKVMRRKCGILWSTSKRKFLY
Outline: (§1)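 Transient luciferase assays in mammalian cell lines were common, though methods varied by source. The values come from published papers and their supplementary material, with extra details from the original authors when needed. Responsive refers to a measured signal the original authors judged statistically different from baseline, and non-responsive (inactive) to the remainder.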

[2] = system: T2, O12D2
T2 sequence (whole entry): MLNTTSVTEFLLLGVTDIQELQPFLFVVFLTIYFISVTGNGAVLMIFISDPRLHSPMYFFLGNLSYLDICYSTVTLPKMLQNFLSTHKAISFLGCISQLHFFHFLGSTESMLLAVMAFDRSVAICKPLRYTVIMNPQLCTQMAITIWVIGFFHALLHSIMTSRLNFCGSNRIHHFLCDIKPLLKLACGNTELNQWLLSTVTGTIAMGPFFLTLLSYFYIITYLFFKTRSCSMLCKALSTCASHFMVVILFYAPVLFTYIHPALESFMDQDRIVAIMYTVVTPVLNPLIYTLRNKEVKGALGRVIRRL
Outline: as §1

[3] = system: T3, O13C3
T3 sequence (whole entry): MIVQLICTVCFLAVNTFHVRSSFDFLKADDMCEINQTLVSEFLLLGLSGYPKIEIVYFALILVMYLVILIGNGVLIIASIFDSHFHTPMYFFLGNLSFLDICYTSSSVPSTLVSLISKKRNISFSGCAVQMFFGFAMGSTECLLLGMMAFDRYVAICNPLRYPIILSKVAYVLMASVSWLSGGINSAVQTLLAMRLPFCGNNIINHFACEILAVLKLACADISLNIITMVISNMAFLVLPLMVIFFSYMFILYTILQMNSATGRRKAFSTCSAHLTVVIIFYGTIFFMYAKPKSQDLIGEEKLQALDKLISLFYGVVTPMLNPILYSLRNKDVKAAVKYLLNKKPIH
Outline: as §1

[4] = system: T4, O13C5
T4 sequence (whole entry): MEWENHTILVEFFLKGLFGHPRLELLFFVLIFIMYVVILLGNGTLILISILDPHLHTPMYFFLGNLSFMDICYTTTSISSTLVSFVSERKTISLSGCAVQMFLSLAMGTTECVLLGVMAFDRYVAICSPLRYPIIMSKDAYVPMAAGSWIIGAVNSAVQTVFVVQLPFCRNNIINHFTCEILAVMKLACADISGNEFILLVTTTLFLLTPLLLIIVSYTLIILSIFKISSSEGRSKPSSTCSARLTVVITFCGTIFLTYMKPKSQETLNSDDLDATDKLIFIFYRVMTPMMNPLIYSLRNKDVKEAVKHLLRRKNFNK
Outline: as §1

[5] = system: T5, O13C7
T5 sequence (whole entry): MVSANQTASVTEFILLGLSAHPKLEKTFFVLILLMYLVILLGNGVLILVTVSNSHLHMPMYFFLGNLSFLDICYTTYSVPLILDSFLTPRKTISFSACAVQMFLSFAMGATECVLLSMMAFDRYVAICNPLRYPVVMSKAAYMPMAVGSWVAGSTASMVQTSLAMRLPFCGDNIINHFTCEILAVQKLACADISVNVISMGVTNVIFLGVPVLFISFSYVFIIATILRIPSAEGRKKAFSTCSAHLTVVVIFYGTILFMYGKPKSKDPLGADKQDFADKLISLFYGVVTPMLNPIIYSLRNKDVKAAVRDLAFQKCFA
Outline: as §1

[6] = system: T6, O13C9
T6 sequence (whole entry): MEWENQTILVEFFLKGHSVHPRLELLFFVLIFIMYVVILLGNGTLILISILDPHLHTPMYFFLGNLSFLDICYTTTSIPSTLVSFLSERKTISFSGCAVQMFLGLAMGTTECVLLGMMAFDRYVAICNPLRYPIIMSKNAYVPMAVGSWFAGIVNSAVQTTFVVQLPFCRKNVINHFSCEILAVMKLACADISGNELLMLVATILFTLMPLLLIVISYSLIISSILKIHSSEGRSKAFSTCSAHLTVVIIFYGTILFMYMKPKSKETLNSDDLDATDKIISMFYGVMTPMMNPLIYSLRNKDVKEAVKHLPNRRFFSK
Outline: as §1

[7] = system: T7, O13D1
T7 sequence (whole entry): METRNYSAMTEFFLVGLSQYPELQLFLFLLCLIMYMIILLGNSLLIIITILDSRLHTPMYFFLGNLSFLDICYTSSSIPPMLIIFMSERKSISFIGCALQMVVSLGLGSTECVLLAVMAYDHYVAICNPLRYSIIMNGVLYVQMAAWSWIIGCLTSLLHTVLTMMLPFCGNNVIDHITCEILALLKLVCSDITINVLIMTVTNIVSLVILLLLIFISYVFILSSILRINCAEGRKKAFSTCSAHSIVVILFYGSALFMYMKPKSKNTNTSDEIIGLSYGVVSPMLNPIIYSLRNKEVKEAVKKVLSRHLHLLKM
Outline: as §1

[8] = system: T8, O13D1; remark: listed apart in the source
T8 sequence (whole entry): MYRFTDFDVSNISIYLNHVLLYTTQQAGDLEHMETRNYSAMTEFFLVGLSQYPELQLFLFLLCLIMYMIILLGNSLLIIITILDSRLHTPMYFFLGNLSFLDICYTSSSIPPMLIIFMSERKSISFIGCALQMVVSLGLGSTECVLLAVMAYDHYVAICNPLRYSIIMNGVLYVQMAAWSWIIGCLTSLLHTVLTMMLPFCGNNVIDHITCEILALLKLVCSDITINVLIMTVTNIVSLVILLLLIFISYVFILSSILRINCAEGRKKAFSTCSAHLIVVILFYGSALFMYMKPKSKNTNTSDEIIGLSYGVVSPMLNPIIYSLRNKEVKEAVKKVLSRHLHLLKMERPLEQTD
Outline: as §1

[9] = system: T9, O13F1
T9 sequence (whole entry): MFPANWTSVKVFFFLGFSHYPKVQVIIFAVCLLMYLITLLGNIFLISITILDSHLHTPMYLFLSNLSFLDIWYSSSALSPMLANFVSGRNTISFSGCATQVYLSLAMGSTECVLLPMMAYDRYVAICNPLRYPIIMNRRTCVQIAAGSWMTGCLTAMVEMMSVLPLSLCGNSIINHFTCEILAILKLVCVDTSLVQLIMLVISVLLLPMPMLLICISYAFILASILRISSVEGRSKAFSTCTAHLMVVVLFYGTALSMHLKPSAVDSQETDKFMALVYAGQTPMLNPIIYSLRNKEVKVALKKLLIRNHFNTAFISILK
Outline: as §1

[10] = system: T10, O13G1
T10 sequence (whole entry): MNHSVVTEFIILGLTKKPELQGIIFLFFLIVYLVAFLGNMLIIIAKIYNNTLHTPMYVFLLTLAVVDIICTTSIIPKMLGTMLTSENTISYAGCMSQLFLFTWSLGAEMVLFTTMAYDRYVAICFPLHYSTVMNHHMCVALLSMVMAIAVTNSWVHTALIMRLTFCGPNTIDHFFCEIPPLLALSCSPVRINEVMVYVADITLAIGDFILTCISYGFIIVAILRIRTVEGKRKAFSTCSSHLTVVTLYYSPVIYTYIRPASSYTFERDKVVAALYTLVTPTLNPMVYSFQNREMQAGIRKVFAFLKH
Outline: as §1

Measured: odorant receptor agonist call;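 note: active if original authors judged signal statistically different from baseline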

CCCCOC(C)=O
inactive: [1] | [2] | [3] | [4] | [5] | [6] | [7] | [8] | [9] | [10]
